Assay results as given in PubChem BioAssay (NCATS).
The shares of active, inactive and inconclusive entries below differ from those in the screen. Potencies of inconclusive entries are doubtful fits and often do not repeat. Active and inactive are the calls of the source. The call rests on the fitted dose curve; in most records, active means well fitted inhibition curve with a large enough effect; inconclusive means small, poorly fitted or top-dose-only effect; inactive means no such curve, though single readings can be large or run the other way.

Protein sequences, listed by entry. Tags and fused reporters are not part of them. Lines headed by an entry give the natural chain unless they say otherwise; changes in a name come on top.
UniProt P54132: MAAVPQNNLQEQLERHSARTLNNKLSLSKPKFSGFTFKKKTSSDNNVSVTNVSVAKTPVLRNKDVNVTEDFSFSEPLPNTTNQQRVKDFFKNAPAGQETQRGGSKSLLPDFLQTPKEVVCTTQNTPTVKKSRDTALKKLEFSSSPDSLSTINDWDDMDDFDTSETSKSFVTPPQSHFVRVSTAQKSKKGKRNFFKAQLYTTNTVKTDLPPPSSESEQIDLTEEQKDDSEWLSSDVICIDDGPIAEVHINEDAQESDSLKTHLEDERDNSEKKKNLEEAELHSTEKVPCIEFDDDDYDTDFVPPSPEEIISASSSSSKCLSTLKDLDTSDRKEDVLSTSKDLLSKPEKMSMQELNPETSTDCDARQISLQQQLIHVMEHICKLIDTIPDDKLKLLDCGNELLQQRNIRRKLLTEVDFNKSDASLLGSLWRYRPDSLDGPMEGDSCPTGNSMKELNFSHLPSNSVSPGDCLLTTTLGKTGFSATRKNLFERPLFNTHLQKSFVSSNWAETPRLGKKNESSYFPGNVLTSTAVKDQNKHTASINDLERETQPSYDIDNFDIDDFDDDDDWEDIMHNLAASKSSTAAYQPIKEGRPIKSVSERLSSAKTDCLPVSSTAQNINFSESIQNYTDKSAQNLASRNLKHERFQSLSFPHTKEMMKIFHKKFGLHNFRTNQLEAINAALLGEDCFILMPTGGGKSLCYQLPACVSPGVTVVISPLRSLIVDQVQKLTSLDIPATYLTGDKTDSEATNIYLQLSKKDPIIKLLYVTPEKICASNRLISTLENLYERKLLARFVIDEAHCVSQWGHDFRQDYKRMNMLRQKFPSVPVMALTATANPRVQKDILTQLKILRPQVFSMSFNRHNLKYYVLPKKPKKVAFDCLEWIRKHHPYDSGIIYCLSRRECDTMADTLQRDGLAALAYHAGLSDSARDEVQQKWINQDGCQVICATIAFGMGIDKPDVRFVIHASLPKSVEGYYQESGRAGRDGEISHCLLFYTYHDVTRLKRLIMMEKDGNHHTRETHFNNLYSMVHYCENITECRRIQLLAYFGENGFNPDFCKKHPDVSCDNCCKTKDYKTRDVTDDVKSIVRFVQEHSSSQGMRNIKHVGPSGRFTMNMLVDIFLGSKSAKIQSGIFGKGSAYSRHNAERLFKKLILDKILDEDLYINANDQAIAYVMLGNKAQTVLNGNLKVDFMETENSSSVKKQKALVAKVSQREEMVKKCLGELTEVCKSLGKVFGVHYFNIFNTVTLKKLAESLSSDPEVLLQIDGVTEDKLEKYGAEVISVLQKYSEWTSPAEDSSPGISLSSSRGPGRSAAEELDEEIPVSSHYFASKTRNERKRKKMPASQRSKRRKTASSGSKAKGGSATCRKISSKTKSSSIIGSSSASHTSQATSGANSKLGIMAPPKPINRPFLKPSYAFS

The compounds below were run against RecQ-like DNA helicase BLM (Homo sapiens) (UniProt P54132) (assay: qHTS for Inhibitors of WRN Helicase: BLM Helicase Counterscreen for WRN Inhibitors (AID 720503; further: nearly all actives have a fitted effect of over 60% in size)). Conditions: Recombinant BLM helicase DNA unwinding, red fluorescence; series mostly up to 57.1 µM.
Description: Inhibition of DNA repair is proposed as a strategy for combating cancer. Synthetic lethality is an approach that exploits preexisting DNA repair deficiencies in certain tumors to develop inhibitors of DNA repair pathways that compensate for the tumor-associated DNA repair deficiency. Because helicases play critical roles in the DNA damage response and in DNA repair, particularly in actively dividing and replicating cells, characterization of synthetic lethal relationships of DNA helicases may be of value in developing improved anticancer treatment strategies; moreover, small molecules that specifically target a given DNA helicase may be useful for understanding its role in cellular nucleic acid metabolism. The goal of this project is to identify small molecule, non-covalent chemical inhibitors of the Werner syndrome (WS) helicase (WRN), which plays an important role in cell proliferation, the replication stress response, and DNA repair. […] The WRN gene product that is defective in the chromosomal instability disorder has DNA helicase and exonuclease activities and interacts with a number of nuclear proteins to maintain genomic stability. A 1536-well format, fluorescence based, high-throughput screen (AID 651768) has been developed in collaboration with the Brosh Laboratory at the National Institute of Aging (NIA) to screen for inhibitors of the WRN. This counterscreen is used to determine the activity of the validated WRN inhibitors against another related helicase, the Bloom's syndrome (BLM) helicase. […] NIH Chemical Genomics Center [NCGC] NIH Molecular Libraries Probe Centers Network [MLPCN] MLPCN Grant: MH096530 Assay Submitter (PI): Robert Brosh, National Institute of Aging
Three uL of reaction buffer (25 mM Tris-HCl pH 8.0, 50 mM NaCl, 2 mM MgCl2, 1 mM DTT, 0.01% Tween-20, and 1 nM BLM) was dispensed into a 1536-well Greiner black assay plate via solenoid-valve based nanoliter dispensers. Compounds (23 nl each in columns 5-48) and control (23 nl each in column 2 as dose-response) were transferred to the assay plate via a Kalypsys pin-tool equipped with a 1536-pin array. The plates were incubated for 15 min at room temperature, followed by the addition of 1 ul substrates (100 nM DNA and 2 mM ATP, final concentrations) to start the reaction. The plates were transferred into a ViewLux CCD imager where the reaction was measured in a discontinuous kinetic mode (two reads spaced 15 minutes apart, with intermediate room temperature incubation of the covered assay plate) using the standard red-fluorescence optics (excitation filter 525 nm, emission filter 598 nm). Enzyme-free and vehicle (DMSO) controls were included for signal normalization.
Potency means the concentration at half of the fitted maximal effect.

Row | SMILES | Potency
1 | O=C(O)c1cccc(-n2cccc2/C=C/[N+](=O)[O-])c1 | active: 19.2 µM
2 | Cc1ccc(C)n1/N=C1/NC(=O)CS1 | active: 5.41 µM
3 | CC(=O)NN1C(=O)/C(=C/c2ccc(Br)o2)SC1=S | inactive
4 | O=C(O)c1cccc(N2C(=O)c3cc([N+](=O)[O-])cc4cc([N+](=O)[O-])cc(c34)C2=O)c1 | inconclusive: 24.1 µM [inhibitor, partial curve, poor fit]
5 | O=C1C(=Cc2ccco2)CCC1=Cc1ccco1 | active: 7.64 µM
6 | CS(=O)(=O)c1ccc2c(c1)sc1nc(=O)c(/C=C3/C=CC(=O)C(O)=C3)c(N)n12 | active: 3.04 µM
7 | O=C(O)CCCN1C(=O)/C(=C\c2ccco2)SC1=S | inconclusive: 9.61 µM [inhibitor, partial curve]
8 | O=C(O)c1ccc2c(c1)C(=O)/C(=C\c1ccco1)C2=O | inactive
9 | O=C(O)c1ccc(S(=O)(=O)/N=C2\C=C(Nc3ccccc3F)C(=O)c3ccccc32)cc1 | inconclusive: 21.5 µM [inhibitor, partial curve]
10 | O=C(c1cccc(-n2cccc2)c1)N1CCN(S(=O)(=O)c2ccccc2)CC1 | active: 1.08 µM
11 | Cc1cccc(C(=O)N=c2c(C#N)cc3c(=O)n4cccc(C)c4nc3n2Cc2ccco2)c1 | inconclusive: 10.8 µM [inhibitor, partial curve]
12 | O=C1NN(c2ccccc2)C(=O)/C1=C/c1ccc(-c2ccc(Cl)c(C(=O)O)c2)o1 | inconclusive: 24.1 µM [inhibitor, partial curve]
13 | O=C(CCCN1C(=O)/C(=C/c2ccco2)SC1=S)Nc1cccc(C(=O)O)c1 | active: 19.2 µM
14 | COc1ccc2nc3cc(Cl)ccc3c(Nc3ccc(O)c(CN4CCN(C)CC4)c3)c2c1 | active: 21.5 µM
15 | O=C(/C=C/c1cccs1)Nc1scc(-c2ccccc2)c1C(=O)O | active: 21.5 µM
16 | Cc1nc2ccc(C(=O)O)cc2c2c1CC(C)S2 (stereo not given) | inconclusive: 24.1 µM [inhibitor, partial curve, poor fit]
17 | CCn1c(CSc2n[nH]c(N)n2)nc2cc(C(=O)O)ccc21 | active: 24.1 µM
18 | CCn1c(CSc2nc3ccccc3s2)nnc1SCC(=O)c1ccc(O)c(O)c1 | inconclusive: 0.961 µM [inhibitor, full curve]
19 | C/C(C/C(C)=C1/SC(=S)NC1=O)=C1\SC(=S)NC1=O | inconclusive: 30.4 µM [inhibitor, single point]
20 | COc1cc(N=Nc2cccc(S(N)(=O)=O)c2)c2ccccc2c1N | inconclusive: 24.1 µM [inhibitor, partial curve]
21 | O=C1OC(c2ccc3ccccc3c2O)(c2ccc3ccccc3c2O)c2ccccc21 | inactive
22 | O=C(O)CSc1cc(NS(=O)(=O)c2ccc(Cl)cc2)c2ccccc2c1O | inconclusive: 24.1 µM [inhibitor, partial curve]
23 | Cc1ccc(C2=NC(=O)/C(=C/c3cc(O)c(O)c(Br)c3)S2)cc1 | active: 0.764 µM
24 | CCc1cc(=O)oc2cc(C)c(CN3CCCC3)c(O)c12 | active: 3.83 µM
25 | COc1ccc(CN(C#N)c2nc(SC)nc(N(C)C)n2)cc1 | inactive
26 | O=C(CSc1n[nH]c(-c2ccccc2)n1)c1ccc(O)c(O)c1 | active: 19.2 µM
27 | CCc1nnc(NC(=O)c2sc3nc4cc(C)ccc4cc3c2N)s1 | inconclusive: 24.1 µM [inhibitor, partial curve]
28 | Cc1ccc(NC(=O)CN2C(=O)S/C(=C/c3ccc(-c4cc(C(=O)O)ccc4C)o3)C2=O)cc1C | active: 5.41 µM
29 | O=C(Nc1ccc(NC(=O)c2cccs2)cc1)c1ccc(Br)o1 | active: 9.61 µM
30 | COc1ccc(OC)c(N2C(=O)[C@@H]3C(c4ccccc4Cl)=NO[C@@H]3C2=O)c1 | active: 17.1 µM

Among those listed so far, eight contain a halogen:
Row | SMILES | Potency
3 | CC(=O)NN1C(=O)/C(=C/c2ccc(Br)o2)SC1=S | inactive
9 | O=C(O)c1ccc(S(=O)(=O)/N=C2\C=C(Nc3ccccc3F)C(=O)c3ccccc32)cc1 | inconclusive: 21.5 µM [inhibitor, partial curve]
12 | O=C1NN(c2ccccc2)C(=O)/C1=C/c1ccc(-c2ccc(Cl)c(C(=O)O)c2)o1 | inconclusive: 24.1 µM [inhibitor, partial curve]
14 | COc1ccc2nc3cc(Cl)ccc3c(Nc3ccc(O)c(CN4CCN(C)CC4)c3)c2c1 | active: 21.5 µM
22 | O=C(O)CSc1cc(NS(=O)(=O)c2ccc(Cl)cc2)c2ccccc2c1O | inconclusive: 24.1 µM [inhibitor, partial curve]
23 | Cc1ccc(C2=NC(=O)/C(=C/c3cc(O)c(O)c(Br)c3)S2)cc1 | active: 0.764 µM
29 | O=C(Nc1ccc(NC(=O)c2cccs2)cc1)c1ccc(Br)o1 | active: 9.61 µM
30 | COc1ccc(OC)c(N2C(=O)[C@@H]3C(c4ccccc4Cl)=NO[C@@H]3C2=O)c1 | active: 17.1 µM
